Laboratory results: PubChem BioAssay AID1259254 (NCATS, 2017)

Screen: 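Gene knock-downs that lead to re-replication, shown by excess G2 DNA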 (primary screen)
Cells: human HCT116 colorectal cancer cells
Reagent: single siRNA against human genes
Timing: 3 days
Read-out: 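Nuclei stained with Hoechst and imaged; cell-cycle phase assigned by DNA content; G2 share scaled per plate, non-targeting siRNA 0%, GMNN siRNA 100%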
Scale: G2 robust z-score and G2 cells, % of GMNN control: higher = more G2 cells, more excess DNA replication
Call rule: 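An siRNA counts as active if its G2 robust z-score lies at least 5 MADs above the screen median; here such calls match roughly 38% of GMNN control or more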
In all, the deposit lists about 59,000 reagents; below is a part drawn at random. About 1,550 of all reagents (2.6%) were called active. 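G2 share is only a proxy for re-replication; each gene was hit by three separate siRNAs, and active genes were retested.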 Further read-outs or replicates are left out here. The record does not give: the amount of reagent.

CYP4F3 (cytochrome P450 family 4 subfamily F member 3) [SID160776759]
- G2 robust z-score: -0.0186
- G2 cells, % of GMNN control: 2.84
- call: inactive

CYP4F3 (cytochrome P450 family 4 subfamily F member 3) [SID160776760]
- G2 robust z-score: 2.05
- G2 cells, % of GMNN control: 17.4
- call: inactive

CYP4F3 (cytochrome P450 family 4 subfamily F member 3) [SID160776761]
- G2 robust z-score: -0.486
- G2 cells, % of GMNN control: -0.45
- call: inactive

FZD7 (frizzled class receptor 7) [SID160719863]
- G2 robust z-score: 1.89
- G2 cells, % of GMNN control: 16.3
- call: inactive

FZD7 (frizzled class receptor 7) [SID160719864]
- G2 robust z-score: 1.29
- G2 cells, % of GMNN control: 12
- call: inactive

FZD7 (frizzled class receptor 7) [SID160719865]
- G2 robust z-score: -0.481
- G2 cells, % of GMNN control: -0.42
- call: inactive

RPP38 (ribonuclease P/MRP subunit p38) [SID160728722]
- G2 robust z-score: -0.944
- G2 cells, % of GMNN control: -3.67
- call: inactive

RPP38 (ribonuclease P/MRP subunit p38) [SID160728723]
- G2 robust z-score: 0.307
- G2 cells, % of GMNN control: 5.12
- call: inactive

RPP38 (ribonuclease P/MRP subunit p38) [SID160730451]
- G2 robust z-score: 1.1
- G2 cells, % of GMNN control: 10.7
- call: inactive

CCDC197 (coiled-coil domain containing 197) [SID160762437]
- G2 robust z-score: -0.78
- G2 cells, % of GMNN control: -2.52
- call: inactive

CCDC197 (coiled-coil domain containing 197) [SID160762438]
- G2 robust z-score: 0.137
- G2 cells, % of GMNN control: 3.93
- call: inactive

CCDC197 (coiled-coil domain containing 197) [SID160762439]
- G2 robust z-score: -1.03
- G2 cells, % of GMNN control: -4.28
- call: inactive

TDRD12 (tudor domain containing 12) [SID160754040]
- G2 robust z-score: -0.257
- G2 cells, % of GMNN control: 1.16
- call: inactive

TDRD12 (tudor domain containing 12) [SID160754041]
- G2 robust z-score: 1.92
- G2 cells, % of GMNN control: 16.5
- call: inactive

TDRD12 (tudor domain containing 12) [SID160754042]
- G2 robust z-score: 0.0179
- G2 cells, % of GMNN control: 3.09
- call: inactive

LOC441239 [SID160733412]
- G2 robust z-score: -0.685
- G2 cells, % of GMNN control: -1.85
- call: inactive

LOC441239 [SID160767967]
- G2 robust z-score: -0.887
- G2 cells, % of GMNN control: -3.28
- call: inactive

LOC441239 [SID160767968]
- G2 robust z-score: -0.738
- G2 cells, % of GMNN control: -2.23
- call: inactive

LY6G5B (lymphocyte antigen 6 family member G5B) [SID160746852]
- G2 robust z-score: -0.608
- G2 cells, % of GMNN control: -1.31
- call: inactive

LY6G5B (lymphocyte antigen 6 family member G5B) [SID160746853]
- G2 robust z-score: 1.54
- G2 cells, % of GMNN control: 13.8
- call: inactive

LY6G5B (lymphocyte antigen 6 family member G5B) [SID160746854]
- G2 robust z-score: 2.34
- G2 cells, % of GMNN control: 19.4
- call: inactive

ARID5A (AT-rich interaction domain 5A) [SID160729370]
- G2 robust z-score: -0.295
- G2 cells, % of GMNN control: 0.891
- call: inactive

ARID5A (AT-rich interaction domain 5A) [SID160729371]
- G2 robust z-score: -0.0452
- G2 cells, % of GMNN control: 2.65
- call: inactive

ARID5A (AT-rich interaction domain 5A) [SID160729372]
- G2 robust z-score: -0.239
- G2 cells, % of GMNN control: 1.28
- call: inactive

Records above whose gene name starts with R or r (3):
RPP38 (ribonuclease P/MRP subunit p38) [SID160728722]
- G2 robust z-score: -0.944
- G2 cells, % of GMNN control: -3.67
- call: inactive

RPP38 (ribonuclease P/MRP subunit p38) [SID160728723]
- G2 robust z-score: 0.307
- G2 cells, % of GMNN control: 5.12
- call: inactive

RPP38 (ribonuclease P/MRP subunit p38) [SID160730451]
- G2 robust z-score: 1.1
- G2 cells, % of GMNN control: 10.7
- call: inactive
